The supplement of paper PMC10849652
Some of the results follow.

The chains behind the UniProt entries cited, without tags or fusion partners. Where a name states a change or a piece, a line headed by the entry shows the natural chain unless it says otherwise.
UniProt Q13330: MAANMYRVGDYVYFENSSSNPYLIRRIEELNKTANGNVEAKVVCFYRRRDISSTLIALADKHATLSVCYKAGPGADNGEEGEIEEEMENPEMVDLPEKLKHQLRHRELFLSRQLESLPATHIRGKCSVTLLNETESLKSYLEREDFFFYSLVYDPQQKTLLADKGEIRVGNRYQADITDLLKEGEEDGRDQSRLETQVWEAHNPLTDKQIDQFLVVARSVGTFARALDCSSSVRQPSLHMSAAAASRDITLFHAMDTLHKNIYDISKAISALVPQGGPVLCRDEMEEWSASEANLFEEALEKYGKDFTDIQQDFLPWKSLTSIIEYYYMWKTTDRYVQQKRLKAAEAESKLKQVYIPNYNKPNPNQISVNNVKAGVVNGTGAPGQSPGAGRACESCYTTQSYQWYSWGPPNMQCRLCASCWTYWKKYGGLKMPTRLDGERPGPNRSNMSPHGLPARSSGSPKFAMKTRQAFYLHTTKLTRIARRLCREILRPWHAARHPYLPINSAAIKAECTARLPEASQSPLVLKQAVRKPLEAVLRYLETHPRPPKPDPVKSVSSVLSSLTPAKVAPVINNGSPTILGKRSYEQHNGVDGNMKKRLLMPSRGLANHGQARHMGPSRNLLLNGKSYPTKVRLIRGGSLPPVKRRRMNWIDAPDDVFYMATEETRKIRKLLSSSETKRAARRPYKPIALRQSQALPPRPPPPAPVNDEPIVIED
UniProt Q9H2K0, whole entry, looked up: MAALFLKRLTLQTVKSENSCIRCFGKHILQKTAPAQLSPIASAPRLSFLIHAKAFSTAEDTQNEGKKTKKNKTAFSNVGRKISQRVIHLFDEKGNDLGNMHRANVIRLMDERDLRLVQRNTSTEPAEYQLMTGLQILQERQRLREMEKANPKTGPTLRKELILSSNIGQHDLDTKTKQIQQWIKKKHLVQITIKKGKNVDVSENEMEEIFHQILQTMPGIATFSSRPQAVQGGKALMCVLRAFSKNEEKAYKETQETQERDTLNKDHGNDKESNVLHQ
UniProt Q96E11: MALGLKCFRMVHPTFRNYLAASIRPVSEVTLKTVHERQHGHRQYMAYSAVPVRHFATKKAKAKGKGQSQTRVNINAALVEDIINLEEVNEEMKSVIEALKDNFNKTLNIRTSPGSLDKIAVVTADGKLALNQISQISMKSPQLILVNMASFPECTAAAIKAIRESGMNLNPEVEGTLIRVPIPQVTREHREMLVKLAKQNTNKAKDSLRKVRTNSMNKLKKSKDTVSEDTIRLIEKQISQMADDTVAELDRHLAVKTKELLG
UniProt Q9P0P8: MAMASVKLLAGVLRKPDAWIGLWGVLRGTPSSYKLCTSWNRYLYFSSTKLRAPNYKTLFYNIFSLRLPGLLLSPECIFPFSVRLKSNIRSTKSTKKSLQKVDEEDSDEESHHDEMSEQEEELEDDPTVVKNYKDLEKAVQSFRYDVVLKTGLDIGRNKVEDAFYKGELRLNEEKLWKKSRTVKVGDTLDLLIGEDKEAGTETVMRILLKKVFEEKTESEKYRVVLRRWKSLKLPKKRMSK
UniProt Q9HD23: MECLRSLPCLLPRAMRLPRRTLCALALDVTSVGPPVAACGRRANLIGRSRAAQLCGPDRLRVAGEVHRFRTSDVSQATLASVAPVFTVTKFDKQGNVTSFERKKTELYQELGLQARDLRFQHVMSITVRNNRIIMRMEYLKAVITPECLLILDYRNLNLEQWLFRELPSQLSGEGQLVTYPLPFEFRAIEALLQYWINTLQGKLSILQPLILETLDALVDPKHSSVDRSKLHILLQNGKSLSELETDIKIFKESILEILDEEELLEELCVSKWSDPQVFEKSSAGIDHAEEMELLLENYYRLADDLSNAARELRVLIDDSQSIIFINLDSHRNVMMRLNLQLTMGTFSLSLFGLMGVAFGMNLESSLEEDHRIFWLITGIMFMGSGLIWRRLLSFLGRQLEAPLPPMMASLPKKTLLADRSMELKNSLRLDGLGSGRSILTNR
UniProt P03928: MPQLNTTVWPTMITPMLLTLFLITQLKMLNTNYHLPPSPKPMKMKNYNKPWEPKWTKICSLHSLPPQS
UniProt Q7Z6M4: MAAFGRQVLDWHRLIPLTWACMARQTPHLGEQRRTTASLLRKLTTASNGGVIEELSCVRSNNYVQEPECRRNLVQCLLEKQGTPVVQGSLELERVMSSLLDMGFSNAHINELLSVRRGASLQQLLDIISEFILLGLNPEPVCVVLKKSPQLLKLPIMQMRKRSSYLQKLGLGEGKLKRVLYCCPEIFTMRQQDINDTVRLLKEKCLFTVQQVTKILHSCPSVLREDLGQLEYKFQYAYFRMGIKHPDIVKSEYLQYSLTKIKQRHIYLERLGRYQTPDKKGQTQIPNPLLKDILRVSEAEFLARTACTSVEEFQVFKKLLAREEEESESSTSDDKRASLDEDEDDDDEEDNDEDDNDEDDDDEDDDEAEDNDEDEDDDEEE
UniProt Q9UDX5: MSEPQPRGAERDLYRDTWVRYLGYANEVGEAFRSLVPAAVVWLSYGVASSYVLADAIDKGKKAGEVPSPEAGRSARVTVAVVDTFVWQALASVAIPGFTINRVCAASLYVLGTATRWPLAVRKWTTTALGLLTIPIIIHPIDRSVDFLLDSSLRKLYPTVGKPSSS
UniProt P26038, whole entry, looked up: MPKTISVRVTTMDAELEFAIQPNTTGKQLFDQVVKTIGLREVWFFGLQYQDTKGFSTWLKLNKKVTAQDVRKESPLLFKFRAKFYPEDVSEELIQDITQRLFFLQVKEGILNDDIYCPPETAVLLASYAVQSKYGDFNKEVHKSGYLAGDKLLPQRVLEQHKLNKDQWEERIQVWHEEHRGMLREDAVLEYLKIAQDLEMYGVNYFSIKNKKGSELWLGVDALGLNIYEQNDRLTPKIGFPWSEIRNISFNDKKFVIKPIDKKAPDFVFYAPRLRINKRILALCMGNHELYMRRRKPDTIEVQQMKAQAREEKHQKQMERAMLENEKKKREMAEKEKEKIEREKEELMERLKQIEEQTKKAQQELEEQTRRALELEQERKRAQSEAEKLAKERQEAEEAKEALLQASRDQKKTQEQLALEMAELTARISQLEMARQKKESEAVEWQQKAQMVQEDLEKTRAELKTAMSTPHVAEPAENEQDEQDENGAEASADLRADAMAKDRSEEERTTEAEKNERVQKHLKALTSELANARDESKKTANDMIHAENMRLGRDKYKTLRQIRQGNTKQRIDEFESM
UniProt P43246, whole entry, looked up: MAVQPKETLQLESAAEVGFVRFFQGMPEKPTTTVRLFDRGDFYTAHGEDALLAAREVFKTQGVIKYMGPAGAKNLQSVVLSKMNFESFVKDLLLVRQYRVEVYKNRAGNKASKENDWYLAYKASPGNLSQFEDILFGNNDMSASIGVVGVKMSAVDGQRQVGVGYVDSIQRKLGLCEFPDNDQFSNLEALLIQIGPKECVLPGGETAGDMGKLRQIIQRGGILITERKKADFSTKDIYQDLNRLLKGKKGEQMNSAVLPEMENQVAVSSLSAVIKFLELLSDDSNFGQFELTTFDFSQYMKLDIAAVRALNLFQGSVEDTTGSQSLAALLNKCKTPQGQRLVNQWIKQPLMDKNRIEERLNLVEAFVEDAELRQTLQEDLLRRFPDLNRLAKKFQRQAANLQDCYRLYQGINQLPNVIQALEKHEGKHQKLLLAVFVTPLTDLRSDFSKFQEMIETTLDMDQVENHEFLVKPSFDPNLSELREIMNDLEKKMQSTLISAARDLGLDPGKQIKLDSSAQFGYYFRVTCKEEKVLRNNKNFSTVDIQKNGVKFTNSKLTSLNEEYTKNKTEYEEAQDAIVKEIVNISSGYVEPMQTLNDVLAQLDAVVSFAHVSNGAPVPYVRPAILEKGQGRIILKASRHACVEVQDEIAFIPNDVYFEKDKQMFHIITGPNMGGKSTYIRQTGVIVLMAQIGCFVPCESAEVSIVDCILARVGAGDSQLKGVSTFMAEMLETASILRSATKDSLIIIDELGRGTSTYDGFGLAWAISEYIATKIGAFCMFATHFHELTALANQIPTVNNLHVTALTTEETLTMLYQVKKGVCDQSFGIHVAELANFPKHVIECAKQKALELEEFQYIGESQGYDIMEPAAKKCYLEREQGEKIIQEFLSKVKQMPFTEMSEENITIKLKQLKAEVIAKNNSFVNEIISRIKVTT
UniProt P60660, whole entry, looked up: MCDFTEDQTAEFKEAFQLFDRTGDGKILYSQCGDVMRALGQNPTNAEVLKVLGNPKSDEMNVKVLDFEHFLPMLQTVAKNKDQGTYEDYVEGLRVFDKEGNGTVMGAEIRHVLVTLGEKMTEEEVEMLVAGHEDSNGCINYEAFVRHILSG
UniProt Q86UE4: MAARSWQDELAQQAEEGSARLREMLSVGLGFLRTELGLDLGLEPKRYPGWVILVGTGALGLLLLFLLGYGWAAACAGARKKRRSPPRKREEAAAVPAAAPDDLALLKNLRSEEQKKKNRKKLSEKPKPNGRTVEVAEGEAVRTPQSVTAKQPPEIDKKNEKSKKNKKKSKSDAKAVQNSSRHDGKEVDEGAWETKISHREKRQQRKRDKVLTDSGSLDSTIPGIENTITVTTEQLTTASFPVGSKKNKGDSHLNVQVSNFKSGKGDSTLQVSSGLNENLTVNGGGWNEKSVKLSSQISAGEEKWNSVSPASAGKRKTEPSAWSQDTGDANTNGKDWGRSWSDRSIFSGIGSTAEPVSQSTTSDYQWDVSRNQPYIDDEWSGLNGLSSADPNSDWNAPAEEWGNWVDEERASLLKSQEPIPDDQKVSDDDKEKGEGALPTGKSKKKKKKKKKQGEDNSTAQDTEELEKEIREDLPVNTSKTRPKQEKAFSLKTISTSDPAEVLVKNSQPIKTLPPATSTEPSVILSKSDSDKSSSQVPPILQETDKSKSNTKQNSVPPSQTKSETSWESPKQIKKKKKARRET
UniProt O75431: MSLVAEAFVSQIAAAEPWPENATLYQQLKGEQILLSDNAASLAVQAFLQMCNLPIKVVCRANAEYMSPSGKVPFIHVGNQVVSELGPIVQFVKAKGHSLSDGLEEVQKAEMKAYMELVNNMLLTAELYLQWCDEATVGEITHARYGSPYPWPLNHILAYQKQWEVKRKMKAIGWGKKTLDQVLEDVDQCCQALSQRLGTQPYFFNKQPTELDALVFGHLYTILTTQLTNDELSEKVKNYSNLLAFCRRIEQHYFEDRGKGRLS
UniProt Q9BRK3: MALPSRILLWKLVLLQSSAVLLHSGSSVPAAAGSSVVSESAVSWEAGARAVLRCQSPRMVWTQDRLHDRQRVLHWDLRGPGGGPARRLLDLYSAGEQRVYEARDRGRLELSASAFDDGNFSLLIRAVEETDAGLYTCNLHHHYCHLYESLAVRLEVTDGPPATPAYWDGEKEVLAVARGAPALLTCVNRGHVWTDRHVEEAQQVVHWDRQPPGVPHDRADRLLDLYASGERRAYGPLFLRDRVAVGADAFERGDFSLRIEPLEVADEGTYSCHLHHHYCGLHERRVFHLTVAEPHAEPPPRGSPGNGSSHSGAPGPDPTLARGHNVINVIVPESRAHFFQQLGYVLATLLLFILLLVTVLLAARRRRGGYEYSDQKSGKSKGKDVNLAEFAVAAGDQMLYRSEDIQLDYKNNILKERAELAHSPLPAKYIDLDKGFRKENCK
UniProt Q9NVV4: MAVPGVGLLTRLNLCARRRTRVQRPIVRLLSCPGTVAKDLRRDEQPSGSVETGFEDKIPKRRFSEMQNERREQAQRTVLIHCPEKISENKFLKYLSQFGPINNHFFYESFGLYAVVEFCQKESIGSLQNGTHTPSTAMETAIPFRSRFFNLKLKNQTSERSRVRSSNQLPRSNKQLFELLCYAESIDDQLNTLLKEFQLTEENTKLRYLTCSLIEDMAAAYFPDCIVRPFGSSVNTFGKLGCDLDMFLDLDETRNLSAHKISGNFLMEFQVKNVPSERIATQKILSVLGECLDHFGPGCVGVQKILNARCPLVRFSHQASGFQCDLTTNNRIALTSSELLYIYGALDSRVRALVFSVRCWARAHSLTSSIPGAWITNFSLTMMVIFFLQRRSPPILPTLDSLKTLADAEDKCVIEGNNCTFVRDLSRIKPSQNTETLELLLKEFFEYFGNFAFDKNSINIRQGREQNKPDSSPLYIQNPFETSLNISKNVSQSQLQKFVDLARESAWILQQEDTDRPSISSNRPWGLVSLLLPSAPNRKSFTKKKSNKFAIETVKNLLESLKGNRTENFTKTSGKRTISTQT
UniProt P12829: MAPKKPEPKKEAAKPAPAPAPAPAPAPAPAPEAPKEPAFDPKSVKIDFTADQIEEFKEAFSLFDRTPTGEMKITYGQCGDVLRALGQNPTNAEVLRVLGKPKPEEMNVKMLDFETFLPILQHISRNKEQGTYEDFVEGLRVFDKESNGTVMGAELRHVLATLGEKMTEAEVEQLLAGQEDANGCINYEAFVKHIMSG
UniProt P82909: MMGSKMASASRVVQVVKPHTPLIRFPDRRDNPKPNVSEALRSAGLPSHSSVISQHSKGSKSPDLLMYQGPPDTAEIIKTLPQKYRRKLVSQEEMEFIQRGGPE

Experiments:
Experiment in all cases: log2 fold change, soluble protein after heating vs DMSO (PISA); higher = thermal stabilisation; K562 cells, 10 uM, 30 min; active = over 0.2 and 3.5 SD of the protein, either way, in both replicates (recomputed)
[1] = compound: C#Cc1cccc(Nc2ncnc3cc(OCCOC)c(OCCOC)cc23)c1 [erlotinib]
How it was run: (§1)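 Soluble protein was defined as the supernatant after 21,000xg for 90 min. It came from K562 cells at 2×10^6 cells/mL given 10 μM compound for 30 min, heated in aliquots for 3 min across 48°C-58°C, pooled, and extracted in PBS with 0.5% NP-40 at 4°C, and was quantified by TMTpro 16plex LC-MS/MS with equalised channel sums. Thermal stability against control samples, from duplicates, is reported as log2 fold change.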

[2] = compound: C/C(=N\NC(=O)C1=CC(=CC=C1)S(=O)(=O)N2CCOCC2)/C3=C(C=CC(=C3)Cl)O
How it was run: as §1

[3] = compound: C1=CC(=C(C=C1Cl)C2=NC3=NC=CN=C3C(=N2)NC4=CC=NC=C4)F
How it was run: as §1

[4] = compound: C1=CC(=CC=C1C2=NC3=C(N2)C=C(C=C3)C(=O)N)OC4=CC=C(C=C4)Cl
How it was run: as §1

[5] = compound: C1=CC2=C(C=CC(=C2)/C=C\3/C(=O)NC(=NCC4=CC=CS4)S3)N=C1
How it was run: as §1

[6] = compound: C1=CC2=NC=CN=C2C=C1/C=C/3\C(=O)NC(=O)S3
How it was run: as §1

[7] = compound: C1=CC=C(C=C1)C2=NC(=C(N2)C3=CC=NC=C3)C4=CC(=C(C=C4)Cl)O
How it was run: as §1

[8] = compound: C1=CC=C2C(=C1)C3=NNC4=CC=CC(=C43)C2=O
How it was run: as §1

[9] = compound: C1CCN(C1)C(=O)NC2=CC=CC(=C2)NC3=NC=C(C(=N3)NCCC4=CN=CN4)Br
How it was run: as §1

[10] = compound: C1CN(CCC1(CC2=CC=C(C=C2)Cl)N)C3=NC=NC4=C3C=CN4
How it was run: as §1

Measured: log2 fold change

MYH11 isoform 2 (UniProt P35749)
inactive: [1] 0.046 | [2] -0.081 | [3] 0.096 | [4] 0.02 | [5] 0.032 | [6] 0.018 | [7] -0.026 | [8] 0.036 | [9] -0.046 | [10] 0.028

MTA1 (UniProt Q13330)
inactive: [1] -0.041 | [2] 0.063 | [3] -0.013 | [4] 0.006 | [5] 0.034 | [6] 0.031 | [7] -0.106 | [8] 0 | [9] -0.041 | [10] -0.009

MTIF3 (UniProt Q9H2K0)
inactive: [1] -0.002 | [2] -0.161 | [3] -0.076 | [4] 0.157 | [5] -0.028 | [6] 0.031 | [8] -0.041

MRRF (UniProt Q96E11)
inactive: [1] -0.022 | [2] 0.041 | [3] 0.056 | [4] 0.008 | [5] -0.012 | [6] 0.024 | [7] 0.013 | [8] 0.017 | [9] -0.011 | [10] -0.006

MTRES1 (UniProt Q9P0P8)
inactive: [1] -0.047 | [2] 0.015 | [3] -0.303 | [4] -0.041 | [5] 0.038 | [8] 0.151 | [9] -0.147 | [10] 0.006

MRS2 (UniProt Q9HD23)
inactive: [1] -0.069 | [2] 0.019 | [3] 0.046 | [4] 0.015 | [5] -0.028 | [6] 0.053 | [7] 0.099 | [8] -0.009 | [9] 0.011 | [10] 0.033

MRTO4 (UniProt Q9UKD2)
inactive: [1] -0.006 | [2] 0.04 | [3] -0.343 | [4] 0.189 | [5] -0.26 | [6] 0.007 | [7] -0.09 | [8] 0.059 | [9] 0.001 | [10] 0.024

MT-ATP8 (UniProt P03928)
inactive: [1] -0.057 | [2] 0.062 | [3] 0.125 | [4] 0.149 | [5] 0.185 | [6] 0.029 | [8] -0.02 | [9] 0.112 | [10] 0.012

MTERF4 (UniProt Q7Z6M4)
inactive: [1] 0.162 | [2] -0.068 | [3] 0.058 | [4] -0.04 | [5] 0.059 | [7] -0.345 | [8] 0.04 | [9] 0.159 | [10] -0.181

MRPS9 (UniProt P82933)
inactive: [1] -0.057 | [2] -0.019 | [3] -0.087 | [4] 0.137 | [5] 0.019 | [6] 0.04 | [7] 0.023 | [8] 0.043 | [9] 0.002 | [10] -0.095

MTA2 (UniProt O94776)
inactive: [1] 0.08 | [2] 0.01 | [3] 0.005 | [4] -0.045 | [5] 0.061 | [6] 0.009 | [7] 0.047 | [8] -0.013 | [9] -0.037 | [10] -0.013

MYO9A isoform 4 (UniProt B2RTY4)
inactive: [1] -0.078 | [2] 0.001 | [3] -0.08 | [4] 0.046 | [5] -0.016 | [6] 0.01 | [8] 0.098

MRPS12 (UniProt O15235)
inactive: [1] -0.013 | [2] 0.008 | [3] -0.13 | [4] 0.095 | [5] -0.052 | [6] 0.018 | [7] 0.099 | [8] 0.165 | [9] 0.025 | [10] -0.063

MTO1 isoform 6 (UniProt Q9Y2Z2)
inactive: [1] 0.085 | [2] 0.004 | [3] 0.071 | [4] -0.021 | [5] 0.087 | [7] 0.034 | [8] 0.149 | [9] -0.023 | [10] 0.058

MTFP1 (UniProt Q9UDX5)
inactive: [1] -0.05 | [2] -0.006 | [3] -0.002 | [4] 0.065 | [5] 0.107 | [6] 0.042 | [7] -0.058 | [8] -0.017 | [9] 0.029 | [10] 0.085

MSN (UniProt P26038)
inactive: [1] 0.003 | [2] 0.032 | [3] 0.063 | [4] -0.008 | [5] -0.022 | [6] 0.025 | [7] -0.005 | [8] 0.036 | [9] -0.004 | [10] -0.023

MSH2 (UniProt P43246)
inactive: [1] 0.038 | [2] 0.109 | [3] 0.066 | [4] -0.004 | [5] 0.037 | [6] 0.025 | [7] -0.016 | [8] 0.035 | [9] -0.064 | [10] -0.059

MYL6 isoform 2 (UniProt P60660)
inactive: [1] -0.025 | [2] 0.016 | [3] 0.038 | [4] 0.035 | [5] 0.002 | [6] 0.041 | [7] 0.045 | [8] 0.029 | [9] -0.011 | [10] -0.107

MTDH (UniProt Q86UE4)
inactive: [1] -0.128 | [2] -0.164 | [3] -0.487 | [4] -0.015 | [5] -0.103 | [6] -0.005 | [7] -0.145 | [8] -0.058 | [9] 0.05 | [10] -0.118

MTX2 (UniProt O75431)
inactive: [1] 0.029 | [2] 0.045 | [3] -0.004 | [4] 0.022 | [5] 0.052 | [6] -0.01 | [7] 0.178 | [8] -0.002 | [9] -0.023 | [10] 0.022

MT-ATP6 (UniProt P00846)
inactive: [1] 0.207 | [2] 0.146 | [3] -0.042 | [4] -0.07 | [5] -0.078 | [6] -0.391 | [7] -0.048 | [8] -0.017 | [9] -0.073 | [10] -0.042

MYH9 (UniProt P35579)
inactive: [1] 0.005 | [2] 0.051 | [3] 0.072 | [4] 0.016 | [5] -0.017 | [6] 0.015 | [7] 0.046 | [8] 0.053 | [9] -0.027 | [10] 0.019

MXRA8 isoform 2 (UniProt Q9BRK3)
inactive: [1] 0.02 | [2] 0.004 | [3] 0.142 | [4] 0.076 | [5] 0.032 | [6] 0.115 | [7] -0.279 | [8] 0.057 | [9] 0.048 | [10] 0.016

MRPS10 (UniProt P82664)
inactive: [1] -0.036 | [2] -0.089 | [3] -0.103 | [4] 0.048 | [5] 0.102 | [6] 0.023 | [7] -0.037 | [8] 0.04 | [9] 0.001 | [10] -0.012

MTCH2 (UniProt E9PIE4)
inactive: [1] -0.042 | [2] 0.061 | [3] 0.146 | [4] 0.059 | [5] 0.049 | [6] 0.086 | [8] -0.024

MTMR14 (UniProt Q8NCE2)
inactive: [1] -0.019 | [2] 0.009 | [3] 0.047 | [4] 0.037 | [5] 0.002 | [6] 0.009 | [7] -0.038 | [8] -0.05 | [9] -0.05 | [10] 0.028

MTPAP (UniProt Q9NVV4)
inactive: [1] 0.019 | [2] -0.047 | [3] -0.078 | [4] -0.012 | [5] -0.026 | [6] 0.112 | [7] 0.003 | [8] 0.003 | [9] -0.048 | [10] -0.02

Reprinted from the results shown (2 entries):
MXRA8 isoform 2 (UniProt Q9BRK3)
inactive: [1] 0.02 | [2] 0.004 | [3] 0.142 | [4] 0.076 | [5] 0.032 | [6] 0.115 | [7] -0.279 | [8] 0.057 | [9] 0.048 | [10] 0.016

MRPS10 (UniProt P82664)
inactive: [1] -0.036 | [2] -0.089 | [3] -0.103 | [4] 0.048 | [5] 0.102 | [6] 0.023 | [7] -0.037 | [8] 0.04 | [9] 0.001 | [10] -0.012

The listing continues.

MYL4 (UniProt P12829)
inactive: [1] -0.002 | [2] -0.013 | [3] 0.074 | [4] -0.025 | [5] 0.005 | [6] 0.039 | [7] 0.01 | [8] -0.05 | [9] -0.022 | [10] -0.044

MRPS36 (UniProt P82909)
inactive: [1] 0.064 | [2] -0.016 | [3] 0.038 | [4] -0.047 | [5] -0.067 | [6] 0.013 | [7] -0.006 | [8] -0.013 | [9] -0.052 | [10] -0.039
